# Results of single-concentration screens

Measurements from “University of Dundee, Small-Polar-MMV Screening Library” (2021), ChEMBL document CHEMBL3988442.

Each number is a percent effect as filed.
The controls that fix the scale are not given in the record; negative values are as filed.
Compounds were drawn at random from those tested, without regard to their results.
Two or more numbers in one place are separate tests of the same structure; such repeats can differ widely.

Mtb cholesterol medium: 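Growth of Mycobacterium tuberculosis over 4 days (cholesterol / DPPC medium with tyloxapol); the read-out is not stated. Concentration: 50 µM. Higher reads as more growth inhibition (inferred: compounds with an IC50 in retests scored well above the rest). Size under these conditions: about 69,000 compounds, about 370 of them at 50% or above in at least one test.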
Mtb glucose medium: 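Growth of Mycobacterium tuberculosis over 3 days (7H9 medium with glucose and tyloxapol); the read-out is not stated. Tested at 50 µM. Higher reads as more growth inhibition (inferred: compounds with an IC50 in retests scored well above the rest). About 69,000 compounds were tested under these conditions; 1.1% (about 760) showed 50% or more at least once.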

structure | Mtb cholesterol medium | Mtb glucose medium
O=C(O)C(F)(F)F.[H][C@@]12COC[C@]1(CNS(=O)(=O)CC)CN(CCc1ccccc1)C2 | -2.073 | 10.52
O=C(Nc1ccc(-c2csnn2)cc1)N1CC[C@H](O)C1 | -16.28 | 13.05
Cc1ccc(=O)n(Cc2csc(N(C)C3CC3)n2)n1 | -21.07 | -20.04
CN(C)C1COC2(CCN(Cc3ccncc3)CC2)C1 (stereo not drawn) | -8.513 | -4.46
CC1c2cc(F)ccc2CCN1C(=O)c1[nH]c(=O)[nH]c(=O)c1N (stereo not drawn) | 20.96 & -3.785 | 4.72
CN(C)S(=O)(=O)N1CCC2(CCCN(Cc3ccc(F)cc3)C2=O)C1 (stereo not drawn) | 22.06 | 26.95
CC(=O)Nc1ccc(C(=O)Nc2cnc3n2CCCC3)cc1C | 15.3 | 10.31 & 0.5372
CN1CC[C@H](N(Cc2ccccc2)Cc2ccccc2)C[C@H](O)C1 | 8.039 | 16.1
COc1cc2c(cc1OC)S(=O)(=O)N(Cc1cccc(C)c1)C2=O | -20.61 | 9.631
COc1cccc(CN2CCCC3(CCN(C(=O)N4CCCC4)C3)C2)c1.O=C(O)C(F)(F)F (stereo not drawn) | 14.85 & 18.66 | -0.8131
Cc1cc(OCC(=O)NCc2ccc(F)cc2)nnc1C | -13.53 & -3.387 | -9.998
Cc1ccc(S(=O)(=O)N2CCN(CCCn3ccnc3)CC2)cc1 | 4.637 | -2.453 & 2.452
Cc1ccc(CN(Cc2ncc[nH]2)C2CC(C)(C)NC(C)(C)C2)o1.O=C(O)CC(O)(CC(=O)O)C(=O)O | -24.1 | -25.31
Brc1ccc(NCc2ccc(Cn3ccnc3)cc2)nc1 | 63.45 | 70.19
CCNC(=O)C1CCCN(c2ccc(C#N)cc2C(F)(F)F)C1 (stereo not drawn) | 6.832 | -11.41
Cc1ccnc(OCC(=O)N2CCN(c3ncccn3)CC2)n1 | -5.018 | -0.3283
COc1ccc(-c2nonc2N)cc1 | -27.27 | -14.86
Cc1noc(C2CCCN(Cn3cc(Cl)cn3)C2)n1 (stereo not drawn) | -21.99 | -30.56
CCN(Cc1ccco1)C(=O)Nc1cc(C(F)(F)F)c[nH]c1=O | -15.55 | 22.9
CCn1cc(C(=O)Nc2ccc(C)cc2C(=O)NC)cn1 | -8.783 | 5.673 & 14.95
CCN(CC)S(=O)(=O)N1CCCC(c2nccn2Cc2ccncc2)C1 (stereo not drawn) | -14.31 | -49.93
Cc1ccc(N2CCCC(N3CCC4(CC3)OCCO4)C2=O)cc1 (stereo not drawn) | -1.434 | 8.514
Cc1csc2cc(C(=O)NC3CCCC3)cnc12 | -14.94 | 7.212
c1ccc(CCN2CCOC3(CCc4ccccc43)C2)nc1 (stereo not drawn) | 8.09 | -7.223
CCOC(=O)c1sc2ccsc2c1CNC(=O)CCOC | 5.524 | -3.599
COCCN1CCCCC12CC(=O)N(c1cccc(C#N)c1)C2.O=C(O)C(F)(F)F (stereo not drawn) | 7.39 | -0.2048
CCn1nc2c(cc1=O)CN(CCCOc1ccc(C#N)cc1)CC2 | 20.13 | 17.28 & -5.207
Cc1ccc(S(N)(=O)=O)cc1C(=O)NCC1Cc2ccccc2O1 (stereo not drawn) | 5.467 & 2.343 | 0.528
Cc1cc(CN2CCC(CNC(=O)Cc3ccc(F)cc3)C2)[nH]n1 (stereo not drawn) | -5.388 & 6.395 | 4.749 & 9.682
[H][C@@]12CCN(C[C@@H]1c1cc(-c3cccs3)nn1C)[C@@H](CNC(C)=O)C2 | -11.35 | 2.591 & 11.08
CN(CCCNS(=O)(=O)N1CCC2(CC1)OCCO2)c1ccccc1 | -32.43 & 8.215 | -18.1
COCC(=O)N1CCC(c2cc(-c3ccc(OC)cc3)n[nH]2)C1 (stereo not drawn) | -27.57 | -13.73
Cc1cc(N2CCN(C(=O)Cc3ccc4c(c3)OCO4)CC2)cc(C)n1 | 82.53 | 20.75
Cc1nn(C)c(N2CCOCC2)c1CN[C@@H]1c2ccccc2C[C@@H]1O | 0.8629 | 0.2183
CC(CS(C)(=O)=O)N(C)C(=O)NCCCc1ccc(Cl)cc1 (stereo not drawn) | 30.86 | 10.16
COc1ncnc2c1CCN(C(=O)NCc1cccc(F)c1)CC2 | 27.5 | 18.78 & 4.57
[H][C@]12CN(C(=O)c3ccno3)CCN1C(=O)N(Cc1ccc(OC)cc1)C2 | 13.12 | 56.39 & -19.87
CCc1cnc(NCCS(=O)(=O)N(C)C)nc1 | -25.1 | 5.83
Nc1cc(N2CCCC(COc3ccc(F)cc3)C2)ncn1 (stereo not drawn) | 11.34 | 26.24
O=C(O)C(F)(F)F.[H][C@@]12CCCO[C@]1([H])[C@H](NC(=O)N(C)C)CN2Cc1ccc2c(c1)OCO2 | -23.46 | -3.248
COCCN(C)CC(=O)N1C[C@@H](NC(C)=O)[C@H](c2ccc(OC)cc2)C1 | 4.201 | -1.463 & 26.51
CN1CCN(Cc2cn3c(n2)CN(CC2CC2)CC3)CC1 | 0.6968 & -22.91 | -20.06 & 0.4228
COCCC(=O)Nc1cnn(COc2ccc(F)cc2Cl)c1 | -18.14 | -15.84
CC(C)(C)N1CCCN(C(=O)c2csc(S(N)(=O)=O)c2)CC1 | -8.551 | -14.16
CCn1c(C)cc(C(=O)N2C[C@@H](C(=O)O)[C@H](c3ccccc3C)C2)c1C | -5.928 | -27.53
CC(C)N(CC(N)=O)Cc1csc(Cc2ccccc2)n1 | -11.86 | -36.88
CNC(=O)C1CCCCN1C(=O)c1csc(-c2ccccc2)n1 (stereo not drawn) | -25.66 | -43.38 & 8.196
[H][C@@]12C[C@H](c3nnc(C)o3)CN(S(=O)(=O)C3CC3)[C@]1([H])CCO2 | -13.37 | 7.227 & -29.63
CCCC(C#N)NC(=O)c1cc(Br)c2c(c1)OCCO2 (stereo not drawn) | 9.15 | 2.789
Cc1nsc2ncc(C(=O)N3CCCC3c3cnn(C)c3)cc12 (stereo not drawn) | -4.481 | -5.357
CCC(CC)C(=O)NCCC(=O)N1CCN(c2ccccn2)CC1 | -4.969 | 2.668
CN(Cc1ccccc1F)C(=O)c1cc(Cl)c[nH]1 | 29.92 | 22.62
COc1ccc(CN2CCCC(Nc3cccc(F)c3)C2)cc1O (stereo not drawn) | 55.05 | 45.5
Cc1nc(C2CCCN(C(=O)CCCn3ccnc3C)C2)no1 (stereo not drawn) | 3.2 | -10.29
CCc1nc(C2CCCN2CC(=O)Nc2cc(C)nn2C)no1 (stereo not drawn) | 6.395 | 13.06
COc1ccc(OC)c(NC(=O)c2nc3ccccc3n(C)c2=O)c1 | -4.305 | 25.27
Cl.Cl.c1c(CN2CCCC2)nc2n1CCNC2 | -1.427 | -10.09 & -48.67
COCc1ccccc1C(=O)NCC(c1c(F)cccc1F)N(C)C (stereo not drawn) | 20.41 | 10.03
CSc1ncccc1C(=O)N(CCO)Cc1ccccc1 | -14.71 | 4.328
Cc1cc(C)nc(C2CCN(C3CCCCC3)C2)n1 (stereo not drawn) | -1.317 | 9.435
COCCN1CCN(c2ccc3ccc(C(=O)NC4CC4)cn23)CC1 | -12.12 | -8.875
COc1cc(CN2CCC3(CC2)[C@H](O)C[C@@H]3OCCO)ccc1F | 10.64 | -5.758
O=S(=O)(NCCCn1cncn1)c1ccc2c(c1)OCCO2 | -2.736 | 13.2
O=C1CN(C(=O)c2cc(Cl)ccc2F)c2ccncc2N1 | 2.474 & -4.679 | 3.829
O=C(O)C(F)(F)F.[H][C@]12CN(Cc3ccc(C)cc3)C[C@@]1([H])S(=O)(=O)CC[C@@H]2C(=O)NCC1CC1 | 0.5493 | -14.66
COCCCC(=O)NC1(c2cccc(Br)c2)CC1 | 5.437 | 20.81 & -3.349
COCCOc1ccnc(-c2noc([C@@H]3CCCN3CC(C)(C)C)n2)c1 | -23.83 | -13.87 & -2.131
CC(=O)c1cccc(OCC(=O)NS(=O)(=O)c2ccc(C)s2)c1 | 11.14 | 22.24
CC(C)CCNC(=O)c1ccc(-c2ccco2)[nH]c1=O | 4.085 | 1.641
[H][C@@]12CN(c3ncc(F)cn3)C[C@]1(C(=O)NC)CCCN2c1ncccn1 | -1.707 & -0.1824 | -8.091 & -2.924
CN(C)C(=O)c1cccc(CCNS(C)(=O)=O)c1 | -1.554 | -20.27
Cn1ccc2c(-c3cc(N4CCOCC4)ncn3)ccnc21 | -14.8 | 5.407
CN1CCCN(C[C@@H]2CN(c3nc(C(N)=O)cs3)C[C@@H]2CO)CC1 | 6.258 | -20.77
CC(CN1CCOCC1)NCC1CCN(c2cnn(C)c(=O)c2)CC1 (stereo not drawn) | -14.12 | -15.86 & -9.439
O=C(NCCc1ccccc1)c1cn(CCNCc2cccnc2)nn1 | 15.72 | 19.16
O=C1N(c2cccc(F)c2)Cc2nc(=O)n(Cc3ccccc3Cl)n21 | -10.6 | -3.428
COc1cccc2c1OCC(CNC(=O)CNC(N)=O)C2 (stereo not drawn) | 5.206 | 21.48
O=C(C1CN(Cc2ccoc2)CC12CCOCC2)N1CCCC1 (stereo not drawn) | 1.02 | -13.19 & -0.5436
CCN(Cc1nccn1C)C(=O)c1ccc(NCc2ccc(C)o2)nc1 | -10.6 | -25.82 & -4.094
COc1ccc(CNC2(Cc3cc(CC(C)C)on3)COC2)cc1 | -32.12 | -10.06 & 3.457
CCc1nsc(N2CCCN(C(=O)c3ccsc3)CC2)n1 | -16.29 | 4.534 & -19.09
Cc1cc(C(=O)N2CCC3(CC2)C(=O)N(C)CCN3CC2CC2)c(C)o1.O=C(O)C(F)(F)F | -4.739 | 2.432
Cc1nn(C)c(Cl)c1C1CCCN1C(=O)c1ccc[nH]1 (stereo not drawn) | -6.26 | 24.6
Cc1cccc(N(CCC(N)=O)CC(=O)Nc2cc(Cl)ccc2Cl)c1 | -35.22 | -4.649

Some entries from above, unchanged:

- COc1ccc(CN2CCCC(Nc3cccc(F)c3)C2)cc1O (stereo not drawn) | Mtb cholesterol medium: 55.05%; Mtb glucose medium: 45.5%
- O=C1N(c2cccc(F)c2)Cc2nc(=O)n(Cc3ccccc3Cl)n21 | Mtb cholesterol medium: -10.6%; Mtb glucose medium: -3.428%
- Cc1noc(C2CCCN(Cn3cc(Cl)cn3)C2)n1 (stereo not drawn) | Mtb cholesterol medium: -21.99%; Mtb glucose medium: -30.56%
- Nc1cc(N2CCCC(COc3ccc(F)cc3)C2)ncn1 (stereo not drawn) | Mtb cholesterol medium: 11.34%; Mtb glucose medium: 26.24%
- CC1c2cc(F)ccc2CCN1C(=O)c1[nH]c(=O)[nH]c(=O)c1N (stereo not drawn) | Mtb cholesterol medium: 20.96% & -3.785%; Mtb glucose medium: 4.72%
- COCCCC(=O)NC1(c2cccc(Br)c2)CC1 | Mtb cholesterol medium: 5.437%; Mtb glucose medium: 20.81% & -3.349%
- CC(C)(C)N1CCCN(C(=O)c2csc(S(N)(=O)=O)c2)CC1 | Mtb cholesterol medium: -8.551%; Mtb glucose medium: -14.16%
- CCc1cnc(NCCS(=O)(=O)N(C)C)nc1 | Mtb cholesterol medium: -25.1%; Mtb glucose medium: 5.83%